Measurements reported in PubChem BioAssay AID1259308 (NCATS, 2017).
Purpose: 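Knock-downs that increase output of a recombinant reporter protein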 (primary screen). Cell system: human HEK293 embryonic kidney cells stably expressing firefly luciferase (HEK-CMV-Luc2-Hygro). Knock-down reagent: single siRNA against human genes, 0.8 pmol siRNA per well. Timing: 72 h. Measurement: 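Reporter luminescence and viable-cell signal on separate replicate plates, given as percent of non-targeting control and median/MAD z-scores, plus per-cell luciferase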. Scale: total luciferase, z-score and total luciferase, % of control: higher = more reporter protein produced. Active means: 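An siRNA counts as active if its total luciferase robust z-score exceeds 3; genes with two or more such siRNAs out of three were retested with fresh siRNAs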. Meaning of the calls: active = raised luciferase; inactive = no rise.
In all, the deposit lists about 59,000 reagents; shown is a part drawn at random. About 1,510 of all reagents (2.6%) count as active. 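Calls use total luciferase alone and ignore viability, so some active siRNAs may act by altering cell number.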 The numbers tell different reagents against one gene apart. Further read-outs or replicates are left out here.

ITGAD #1
- total luciferase, z-score: 0.391
- total luciferase, % of control: 89.7
- Outcome: inactive

ITGAD #2
- total luciferase, z-score: -0.115
- total luciferase, % of control: 79.6
- Outcome: inactive

ITGAD #3
- total luciferase, z-score: -0.641
- total luciferase, % of control: 69.1
- Outcome: inactive

NXPH1 #1
- total luciferase, z-score: -0.849
- total luciferase, % of control: 65
- Outcome: inactive

NXPH1 #2
- total luciferase, z-score: 0.171
- total luciferase, % of control: 85.3
- Outcome: inactive

NXPH1 #3
- total luciferase, z-score: -0.116
- total luciferase, % of control: 79.6
- Outcome: inactive

PRTFDC1 #1
- total luciferase, z-score: 2.26
- total luciferase, % of control: 127
- Outcome: inactive

PRTFDC1 #2
- total luciferase, z-score: -0.451
- total luciferase, % of control: 72.9
- Outcome: inactive

PRTFDC1 #3
- total luciferase, z-score: 0.423
- total luciferase, % of control: 90.3
- Outcome: inactive

SEC24A #1
- total luciferase, z-score: 1.48
- total luciferase, % of control: 111
- Outcome: inactive

SEC24A #2
- total luciferase, z-score: -0.724
- total luciferase, % of control: 67.5
- Outcome: inactive

SEC24A #3
- total luciferase, z-score: -1.21
- total luciferase, % of control: 57.8
- Outcome: inactive
